Reference: PubChem BioAssay AID1259254 (NCATS, 2017)

Assay: 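Finding genes that stop cells copying their DNA twice in one cycle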 (primary screen)
Cell system: human HCT116 colorectal cancer cells
Reagent: single siRNA against human genes
Time to read-out: 3 days
Read-out: 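Imaged Hoechst DNA stain sorts each cell into a cycle phase by DNA amount; per plate, G2 fraction set to 0% for non-targeting and 100% for GMNN siRNA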
Direction: G2 robust z-score and G2 cells, % of GMNN control: higher = more G2 cells, more excess DNA replication; raw share of cells in G2: higher = larger share of cells with G2 DNA content
Call rule: 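Active siRNAs have a G2 robust z of 5 or more median absolute deviations over the median, which in these data means about 38% or higher of GMNN control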
Shown is a random part of about 59,000 reagents tested. In the full data, about 1,550 (2.6%) are marked active. 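G2 share is only a proxy for re-replication; each gene was hit by three separate siRNAs, and active genes were retested.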 The raw values are shown without normalisation. The numbers tell different reagents against one gene apart. No sequences are given here. Not given: the amount of reagent.

target	reagent no.	G2 robust z-score	G2 cells, % of GMNN control	raw share of cells in G2 (%)	outcome
CDYL2 (chromodomain Y like 2)	1	-0.395	0.189	4.55	inactive
CDYL2 (chromodomain Y like 2)	2	2.14	18	12.7	inactive
CDYL2 (chromodomain Y like 2)	3	-0.0523	2.6	6.88	inactive
SSB (small RNA binding exonuclease protection factor La)	1	-1.04	-4.38	2.51	inactive
SSB (small RNA binding exonuclease protection factor La)	2	-0.766	-2.43	4.87	inactive
SSB (small RNA binding exonuclease protection factor La)	3	-0.271	1.06	4.91	inactive
LY6G6C (lymphocyte antigen 6 family member G6C)	1	0.168	4.15	6.17	inactive
LY6G6C (lymphocyte antigen 6 family member G6C)	2	-0.211	1.48	4.95	inactive
LY6G6C (lymphocyte antigen 6 family member G6C)	3	0.747	8.22	4.63	inactive
LINC01829 (long independently transcribed non-coding RNA 1829)	1	0.256	4.77	4.53	inactive
LINC01829 (long independently transcribed non-coding RNA 1829)	2	0.702	7.9	6.65	inactive
LINC01829 (long independently transcribed non-coding RNA 1829)	3	-0.503	-0.574	3.07	inactive
DNAJC15 (DnaJ heat shock protein family (Hsp40) member C15)	1	-0.511	-0.629	3.61	inactive
DNAJC15 (DnaJ heat shock protein family (Hsp40) member C15)	2	0.126	3.86	6.01	inactive
DNAJC15 (DnaJ heat shock protein family (Hsp40) member C15)	3	0.362	5.51	4.99	inactive
CDHR4 (cadherin related family member 4)	1	-1.05	-4.41	2.26	inactive
CDHR4 (cadherin related family member 4)	2	-0.0473	2.63	4.55	inactive
CDHR4 (cadherin related family member 4)	3	-0.659	-1.67	3.92	inactive
CCDC71L (coiled-coil domain containing 71 like)	1	-0.835	-2.9	2.56	inactive
CCDC71L (coiled-coil domain containing 71 like)	2	0.286	4.98	4.63	inactive
CCDC71L (coiled-coil domain containing 71 like)	3	-0.313	0.765	3	inactive
ZNF286A (zinc finger protein 286A)	1	-0.244	1.25	3.23	inactive
ZNF286A (zinc finger protein 286A)	2	-0.746	-2.28	4.88	inactive
ZNF286A (zinc finger protein 286A)	3	-1.35	-6.56	1.57	inactive
SWT1 (SWT1 RNA endoribonuclease homolog)	1	-1.48	-7.43	0.944	inactive
SWT1 (SWT1 RNA endoribonuclease homolog)	2	-0.189	1.64	4.96	inactive
SWT1 (SWT1 RNA endoribonuclease homolog)	3	-0.702	-1.97	2.54	inactive
EPHA10 (EPH receptor A10)	1	-0.532	-0.777	5.35	inactive
EPHA10 (EPH receptor A10)	2	-0.524	-0.722	4.93	inactive
EPHA10 (EPH receptor A10)	3	1.35	12.4	7.67	inactive
ISLR (immunoglobulin superfamily containing leucine rich repeat)	1	-0.511	-0.63	3.97	inactive
ISLR (immunoglobulin superfamily containing leucine rich repeat)	2	6.31	47.3	22.2	active
ISLR (immunoglobulin superfamily containing leucine rich repeat)	3	-0.695	-1.92	4.95	inactive
KRTAP8-1 (keratin associated protein 8-1)	1	0.748	8.23	6.86	inactive
KRTAP8-1 (keratin associated protein 8-1)	2	0.343	5.38	6.35	inactive
KRTAP8-1 (keratin associated protein 8-1)	3	-0.247	1.23	4.41	inactive
TMEM184A (transmembrane protein 184A)	1	1.03	10.2	7.28	inactive
TMEM184A (transmembrane protein 184A)	2	0.693	7.85	5.82	inactive
TMEM184A (transmembrane protein 184A)	3	-0.438	-0.118	3.16	inactive
CENPN (centromere protein N)	1	4.99	38.1	19.2	inactive
CENPN (centromere protein N)	2	1.48	13.4	9.67	inactive
CENPN (centromere protein N)	3	2.54	20.8	9.79	inactive
CYB5R1 (cytochrome b5 reductase 1)	1	-0.0269	2.78	4.87	inactive
CYB5R1 (cytochrome b5 reductase 1)	2	-0.78	-2.52	4.81	inactive
CYB5R1 (cytochrome b5 reductase 1)	3	1.07	10.5	8.12	inactive
FPR1 (formyl peptide receptor 1)	1	0.318	5.2	7.7	inactive
FPR1 (formyl peptide receptor 1)	2	-0.207	1.51	5.04	inactive
FPR1 (formyl peptide receptor 1)	3	0.289	5	4.8	inactive

Reagents listed above with an active call, once more:
target	reagent no.	G2 robust z-score	G2 cells, % of GMNN control	raw share of cells in G2 (%)	outcome
ISLR (immunoglobulin superfamily containing leucine rich repeat)	2	6.31	47.3	22.2	active
